# Results published in the supplement of paper PMC5407854, “Inhibitor of ppGalNAc-T3-mediated O-glycosylation blocks cancer cell invasiveness and lowers FGF23 levels” (eLife, 2017).
# ± gives the standard deviation of the averaged measurements. In all, about 1,700 compounds were measured (“T3 sensor activation Q score (MG/GFP ratio z-score vs DMSO controls)”: median about 0.25, highest 2% from about 1.9 on). The list shows a part of the results.
# Test system: ppGalNAc-T3 sensor
# Assay: T3 sensor activation Q score (MG/GFP ratio z-score vs DMSO controls) (SD units); higher = more sensor activation (inhibition of ppGalNAc-T3 glycosylation)
# Conditions: HEK293 sensor cells; 10 µM; 6 h
# Procedure: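 Cells were treated with compound at 10 uM for 6 h, then MG/GFP ratio was read by flow cytometry (10,000 cells per well, duplicate wells). Q = (R - R_neg)/SD_neg relative to DMSO vehicle controls; the signal rises when the glycosyltransferase is inhibited.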
row,SMILES,T3 sensor activation Q score
1,O=Cc1ccc(O)c2ncccc12,-1.05
2,O=C(O)C1OCC2(CO1)COC(C(=O)O)OC2 (configuration not stated),0.6
3,Cn1c(=O)c2[nH]c(N3CCCCC3)nc2n(C)c1=O,1.9
4,O=C(O)c1ccccc1C(=O)Nc1ccccc1[N+](=O)[O-],-0.55
5,CCCNC(=O)c1ccc(Cl)cc1Cl,-0.65
6,OCCN1CCSC1=S,1.4
7,Cc1cc(N2CCN(C)CC2)n2nc(-c3ccc(Cl)cc3)nc2n1,1.25
8,COc1cc(N=Nc2ccccc2C(=O)O)ccc1O,-0.8
9,O=C(CC1(O)CCCCC1)OC1CCCC1,-0.35
10,CCOC(=O)c1cc[nH]c1CC(=O)NC,0.6
11,NC(=O)CCC(C(=O)O)N1C(=O)C2C3CCC(C3)C2C1=O (configuration not stated),0.05
12,CC(C)COc1nc2c(c(=O)n(C)c(=O)n2C)n1C,1.35
13,COc1ccc(N/C=C2\C(=O)CCc3c2oc2cc(Cl)c(O)c(Cl)c32)cc1,0.3
14,c1ccc2cc(OCCOCCOc3ccc4ccccc4c3)ccc2c1,1.35
15,Nc1ccccc1-c1nc2ccncc2[nH]1,-0.05
16,Cc1cc(=O)c2c(=O)[nH][nH]c2[nH]1,-1.35
17,CCOC(=O)c1c(O)cc(C)[nH]c1=O,-0.85
18,O=C(O)c1cc2ccccc2c2cc(Br)ccc12,0.4
19,O=C(Nc1ccccc1)Oc1ccc[nH]c1=O,1

# Entries from the list above that contain a Cl atom (three):
row,SMILES,T3 sensor activation Q score
5,CCCNC(=O)c1ccc(Cl)cc1Cl,-0.65
7,Cc1cc(N2CCN(C)CC2)n2nc(-c3ccc(Cl)cc3)nc2n1,1.25
13,COc1ccc(N/C=C2\C(=O)CCc3c2oc2cc(Cl)c(O)c(Cl)c32)cc1,0.3

# (continued)

row,SMILES,T3 sensor activation Q score
1,CN(Cc1cnc2nc(N)nc(N)c2n1)c1ccc(C(=O)N[C@@H](CCC(=O)O)C(=O)O)cc1,-1.25
2,CC(=O)CC[N+](C)(C)C,0.75
3,O=C(O)c1ccc(N2CCCCC2)cc1O,0.05
4,Oc1ccc(-c2nc3ccccc3s2)c(O)c1,1
5,c1ccc(-c2cn3ccccc3n2)cc1,-0.4
6,CC(=O)Nc1ccc(S(=O)(=O)N/N=c2/sc3ccccc3n2C)cc1N,1.55
7,C(COC1CC2CC1C1C2CC2OC21)OC1CC2CC1C1C2CC2OC21 (configuration not stated),1.15
8,[O-][n+]1nc2ccccc2c2ccccc21,-1.15
9,C=CCOc1ccc(S(C)(=O)=O)cc1,1.85
10,CC1=CC(C)(C(Cl)(Cl)Cl)C(C)=C/C1=N/O (configuration not stated),0.15
11,CCCCCCCCC(=O)c1c(OC)oc(C=O)cc1=O,-0.4
12,CC(=O)NCCCOc1ccc([N+](=O)[O-])cc1Cl,-0.6
13,Cc1nc2ccccc2nc1NS(=O)(=O)c1ccc(N)cc1,-0.1
14,Cc1ccc(N=Nc2ccc(N)cc2C)c(S(N)(=O)=O)c1,0.85
15,O=C(Nc1cccc([N+](=O)[O-])c1)c1cccc(C(=O)Nc2cccc([N+](=O)[O-])c2)c1,-0.25
16,O=C(Nc1cccc2ccccc12)c1cc2c(cc1Br)OCO2,0.05
17,Cn1ncc2c(Nc3ccccc3Cl)nc(Cl)nc21,0.95
18,OCc1nc2nc(Cl)c(Cl)nc2[nH]1,-1.15
19,CCC1(CC)C(=O)NC(=S)N=C1N,0.85

row,SMILES,T3 sensor activation Q score
1,CC(C)NC(=O)Nc1cccc(Cl)c1,0.3
2,Cc1oc2c(c(C)nn2-c2ccccc2)c(=O)c1Cl,1.1
3,O=c1cccc2cc(O)c(O)c(O)c2c1O,0.6
4,CC(=O)Oc1c(C)c(OC(C)=O)c2c(c1C(C)=O)OC1CC(=O)C(C(C)=O)=C(O)C21C (configuration not stated),-1.15
5,O=C1C2C3C=CC(O3)C2C(=O)N1Nc1ccccc1 (configuration not stated),0.35
6,Cc1nc(Nc2ncc(C(=O)Nc3c(C)cccc3Cl)s2)cc(N2CCN(CCO)CC2)n1,0.2
7,Cc1c(Cl)cccc1Nc1ncccc1C(=O)OCC(O)CO (configuration not stated),0.45
8,O=C(Nc1cccc(Cl)c1)Nn1cnnc1,0
9,CCOc1ccc(NC(=O)C2CCCN(C)C2)cc1 (configuration not stated),0.6
10,CCOC(=O)C(=O)Cc1nc2ccccc2s1,0.8
11,FC(F)(F)c1cccc(-c2nc3nc(Cl)c(Cl)nc3[nH]2)c1,-3.45
12,COc1cc([C@@H]2c3cc4c(cc3[C@@H](O[C@@H]3O[C@@H]5CO[C@@H](c6cccs6)O[C@H]5[C@H](O)[C@H]3O)[C@H]3COC(=O)[C@H]23)OCO4)cc(OC)c1O,0.475 ± 0.39
13,Cc1ccc(C2C=CC(C#N)=CN2Cc2ccccc2)cc1 (configuration not stated),0.65
14,COC(=O)C1CC(O)C(O)C(O)C1 (configuration not stated),-0.5
15,O=C(Nc1ccccc1)Nc1ccccn1,-1.35
16,NC(=O)c1ccc(Cl)c2ccccc12,0.45
17,Nc1ccn([C@@H]2O[C@H](CO)[C@@H](O)[C@@H]2O)c(=O)n1,0.95
18,c1ccc(Sc2ncnc3ccccc23)cc1,-0.65
19,CN(C)C(=O)c1cccc(COc2ccc(N3C(N)=NC(N)=NC3(C)C)cc2Cl)c1,-0.1
